Measurements reported in the supplement of paper PMC10849652.
The other results are listed elsewhere or left out.

Protein sequences, listed by entry. Tags and fused reporters are not part of them. Lines headed by an entry give the natural chain unless they say otherwise; changes in a name come on top.
UniProt Q15041, whole entry, looked up: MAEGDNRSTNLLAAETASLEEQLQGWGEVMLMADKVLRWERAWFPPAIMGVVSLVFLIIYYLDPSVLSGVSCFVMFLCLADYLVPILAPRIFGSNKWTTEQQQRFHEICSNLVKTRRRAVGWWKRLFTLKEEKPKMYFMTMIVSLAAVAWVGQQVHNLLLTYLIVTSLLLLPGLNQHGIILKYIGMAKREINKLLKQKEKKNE
UniProt Q15904, whole entry, looked up: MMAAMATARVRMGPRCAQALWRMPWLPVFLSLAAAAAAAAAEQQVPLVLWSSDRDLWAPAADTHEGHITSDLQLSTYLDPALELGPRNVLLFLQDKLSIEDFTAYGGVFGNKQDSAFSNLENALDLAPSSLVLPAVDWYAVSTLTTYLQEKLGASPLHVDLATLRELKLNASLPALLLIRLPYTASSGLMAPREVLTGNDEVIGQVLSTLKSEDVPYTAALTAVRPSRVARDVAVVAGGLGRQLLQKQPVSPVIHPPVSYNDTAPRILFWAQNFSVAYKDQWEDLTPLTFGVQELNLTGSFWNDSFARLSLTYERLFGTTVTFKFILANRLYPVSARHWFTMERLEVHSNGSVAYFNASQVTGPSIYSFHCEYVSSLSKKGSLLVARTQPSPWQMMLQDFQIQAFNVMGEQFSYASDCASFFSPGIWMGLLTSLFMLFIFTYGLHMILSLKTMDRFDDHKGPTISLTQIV
UniProt P16615: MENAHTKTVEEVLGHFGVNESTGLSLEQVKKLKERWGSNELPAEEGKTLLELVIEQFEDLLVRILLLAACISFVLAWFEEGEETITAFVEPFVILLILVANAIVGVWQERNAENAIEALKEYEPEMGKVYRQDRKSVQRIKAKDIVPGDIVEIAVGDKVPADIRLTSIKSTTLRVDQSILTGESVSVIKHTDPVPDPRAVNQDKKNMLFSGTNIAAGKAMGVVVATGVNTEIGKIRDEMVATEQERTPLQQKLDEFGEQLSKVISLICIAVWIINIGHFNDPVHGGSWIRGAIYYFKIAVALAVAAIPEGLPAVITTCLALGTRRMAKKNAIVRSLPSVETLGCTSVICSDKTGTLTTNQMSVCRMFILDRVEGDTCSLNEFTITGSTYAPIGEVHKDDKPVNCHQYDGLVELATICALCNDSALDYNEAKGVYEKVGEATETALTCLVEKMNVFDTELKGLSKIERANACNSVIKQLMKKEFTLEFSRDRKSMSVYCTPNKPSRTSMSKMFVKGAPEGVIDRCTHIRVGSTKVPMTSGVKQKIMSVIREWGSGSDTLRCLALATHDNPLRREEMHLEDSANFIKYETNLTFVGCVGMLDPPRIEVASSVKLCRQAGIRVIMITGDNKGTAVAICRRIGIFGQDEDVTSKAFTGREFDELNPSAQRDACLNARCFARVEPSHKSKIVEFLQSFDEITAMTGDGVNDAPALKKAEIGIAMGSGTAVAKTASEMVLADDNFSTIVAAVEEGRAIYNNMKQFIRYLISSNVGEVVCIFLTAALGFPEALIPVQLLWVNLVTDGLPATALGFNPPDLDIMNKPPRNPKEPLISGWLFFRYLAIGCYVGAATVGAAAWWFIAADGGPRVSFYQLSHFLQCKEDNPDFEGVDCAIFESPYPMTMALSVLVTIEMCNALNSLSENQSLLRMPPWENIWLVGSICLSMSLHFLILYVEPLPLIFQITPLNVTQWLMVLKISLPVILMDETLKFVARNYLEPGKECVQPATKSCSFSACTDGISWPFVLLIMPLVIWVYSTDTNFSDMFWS
UniProt Q7Z3C6: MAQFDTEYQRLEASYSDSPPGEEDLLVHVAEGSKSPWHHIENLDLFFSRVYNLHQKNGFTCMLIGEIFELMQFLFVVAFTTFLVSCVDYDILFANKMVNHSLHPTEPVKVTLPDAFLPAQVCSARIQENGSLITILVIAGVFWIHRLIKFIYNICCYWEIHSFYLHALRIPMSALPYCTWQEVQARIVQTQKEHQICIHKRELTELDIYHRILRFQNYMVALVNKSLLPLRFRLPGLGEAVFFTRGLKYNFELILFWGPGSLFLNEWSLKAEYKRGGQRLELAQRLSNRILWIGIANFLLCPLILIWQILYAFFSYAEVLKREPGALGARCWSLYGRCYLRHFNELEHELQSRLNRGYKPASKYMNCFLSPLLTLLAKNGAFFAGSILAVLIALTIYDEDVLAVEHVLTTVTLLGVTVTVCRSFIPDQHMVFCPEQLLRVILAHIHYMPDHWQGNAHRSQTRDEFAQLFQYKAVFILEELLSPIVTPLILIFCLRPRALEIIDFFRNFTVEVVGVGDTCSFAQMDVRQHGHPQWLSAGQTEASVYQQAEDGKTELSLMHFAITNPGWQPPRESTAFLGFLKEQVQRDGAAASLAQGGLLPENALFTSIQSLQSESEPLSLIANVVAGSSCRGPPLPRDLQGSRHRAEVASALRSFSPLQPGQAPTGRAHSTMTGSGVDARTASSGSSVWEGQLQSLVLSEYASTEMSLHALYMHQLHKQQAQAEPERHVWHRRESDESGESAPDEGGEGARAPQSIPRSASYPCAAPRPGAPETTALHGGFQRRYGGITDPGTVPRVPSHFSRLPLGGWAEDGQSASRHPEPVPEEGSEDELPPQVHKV
UniProt O75964: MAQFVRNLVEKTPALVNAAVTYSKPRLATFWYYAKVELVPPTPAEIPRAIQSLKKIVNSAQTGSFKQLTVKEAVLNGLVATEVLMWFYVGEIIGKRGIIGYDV
UniProt P36542: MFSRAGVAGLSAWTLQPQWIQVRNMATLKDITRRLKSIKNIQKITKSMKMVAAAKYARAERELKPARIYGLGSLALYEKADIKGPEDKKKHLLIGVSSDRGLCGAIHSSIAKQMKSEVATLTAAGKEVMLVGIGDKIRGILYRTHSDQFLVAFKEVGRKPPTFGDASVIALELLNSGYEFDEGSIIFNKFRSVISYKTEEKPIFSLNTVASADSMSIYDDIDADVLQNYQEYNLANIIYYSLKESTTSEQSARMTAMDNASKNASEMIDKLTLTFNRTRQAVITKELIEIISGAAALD
UniProt Q8IZT6: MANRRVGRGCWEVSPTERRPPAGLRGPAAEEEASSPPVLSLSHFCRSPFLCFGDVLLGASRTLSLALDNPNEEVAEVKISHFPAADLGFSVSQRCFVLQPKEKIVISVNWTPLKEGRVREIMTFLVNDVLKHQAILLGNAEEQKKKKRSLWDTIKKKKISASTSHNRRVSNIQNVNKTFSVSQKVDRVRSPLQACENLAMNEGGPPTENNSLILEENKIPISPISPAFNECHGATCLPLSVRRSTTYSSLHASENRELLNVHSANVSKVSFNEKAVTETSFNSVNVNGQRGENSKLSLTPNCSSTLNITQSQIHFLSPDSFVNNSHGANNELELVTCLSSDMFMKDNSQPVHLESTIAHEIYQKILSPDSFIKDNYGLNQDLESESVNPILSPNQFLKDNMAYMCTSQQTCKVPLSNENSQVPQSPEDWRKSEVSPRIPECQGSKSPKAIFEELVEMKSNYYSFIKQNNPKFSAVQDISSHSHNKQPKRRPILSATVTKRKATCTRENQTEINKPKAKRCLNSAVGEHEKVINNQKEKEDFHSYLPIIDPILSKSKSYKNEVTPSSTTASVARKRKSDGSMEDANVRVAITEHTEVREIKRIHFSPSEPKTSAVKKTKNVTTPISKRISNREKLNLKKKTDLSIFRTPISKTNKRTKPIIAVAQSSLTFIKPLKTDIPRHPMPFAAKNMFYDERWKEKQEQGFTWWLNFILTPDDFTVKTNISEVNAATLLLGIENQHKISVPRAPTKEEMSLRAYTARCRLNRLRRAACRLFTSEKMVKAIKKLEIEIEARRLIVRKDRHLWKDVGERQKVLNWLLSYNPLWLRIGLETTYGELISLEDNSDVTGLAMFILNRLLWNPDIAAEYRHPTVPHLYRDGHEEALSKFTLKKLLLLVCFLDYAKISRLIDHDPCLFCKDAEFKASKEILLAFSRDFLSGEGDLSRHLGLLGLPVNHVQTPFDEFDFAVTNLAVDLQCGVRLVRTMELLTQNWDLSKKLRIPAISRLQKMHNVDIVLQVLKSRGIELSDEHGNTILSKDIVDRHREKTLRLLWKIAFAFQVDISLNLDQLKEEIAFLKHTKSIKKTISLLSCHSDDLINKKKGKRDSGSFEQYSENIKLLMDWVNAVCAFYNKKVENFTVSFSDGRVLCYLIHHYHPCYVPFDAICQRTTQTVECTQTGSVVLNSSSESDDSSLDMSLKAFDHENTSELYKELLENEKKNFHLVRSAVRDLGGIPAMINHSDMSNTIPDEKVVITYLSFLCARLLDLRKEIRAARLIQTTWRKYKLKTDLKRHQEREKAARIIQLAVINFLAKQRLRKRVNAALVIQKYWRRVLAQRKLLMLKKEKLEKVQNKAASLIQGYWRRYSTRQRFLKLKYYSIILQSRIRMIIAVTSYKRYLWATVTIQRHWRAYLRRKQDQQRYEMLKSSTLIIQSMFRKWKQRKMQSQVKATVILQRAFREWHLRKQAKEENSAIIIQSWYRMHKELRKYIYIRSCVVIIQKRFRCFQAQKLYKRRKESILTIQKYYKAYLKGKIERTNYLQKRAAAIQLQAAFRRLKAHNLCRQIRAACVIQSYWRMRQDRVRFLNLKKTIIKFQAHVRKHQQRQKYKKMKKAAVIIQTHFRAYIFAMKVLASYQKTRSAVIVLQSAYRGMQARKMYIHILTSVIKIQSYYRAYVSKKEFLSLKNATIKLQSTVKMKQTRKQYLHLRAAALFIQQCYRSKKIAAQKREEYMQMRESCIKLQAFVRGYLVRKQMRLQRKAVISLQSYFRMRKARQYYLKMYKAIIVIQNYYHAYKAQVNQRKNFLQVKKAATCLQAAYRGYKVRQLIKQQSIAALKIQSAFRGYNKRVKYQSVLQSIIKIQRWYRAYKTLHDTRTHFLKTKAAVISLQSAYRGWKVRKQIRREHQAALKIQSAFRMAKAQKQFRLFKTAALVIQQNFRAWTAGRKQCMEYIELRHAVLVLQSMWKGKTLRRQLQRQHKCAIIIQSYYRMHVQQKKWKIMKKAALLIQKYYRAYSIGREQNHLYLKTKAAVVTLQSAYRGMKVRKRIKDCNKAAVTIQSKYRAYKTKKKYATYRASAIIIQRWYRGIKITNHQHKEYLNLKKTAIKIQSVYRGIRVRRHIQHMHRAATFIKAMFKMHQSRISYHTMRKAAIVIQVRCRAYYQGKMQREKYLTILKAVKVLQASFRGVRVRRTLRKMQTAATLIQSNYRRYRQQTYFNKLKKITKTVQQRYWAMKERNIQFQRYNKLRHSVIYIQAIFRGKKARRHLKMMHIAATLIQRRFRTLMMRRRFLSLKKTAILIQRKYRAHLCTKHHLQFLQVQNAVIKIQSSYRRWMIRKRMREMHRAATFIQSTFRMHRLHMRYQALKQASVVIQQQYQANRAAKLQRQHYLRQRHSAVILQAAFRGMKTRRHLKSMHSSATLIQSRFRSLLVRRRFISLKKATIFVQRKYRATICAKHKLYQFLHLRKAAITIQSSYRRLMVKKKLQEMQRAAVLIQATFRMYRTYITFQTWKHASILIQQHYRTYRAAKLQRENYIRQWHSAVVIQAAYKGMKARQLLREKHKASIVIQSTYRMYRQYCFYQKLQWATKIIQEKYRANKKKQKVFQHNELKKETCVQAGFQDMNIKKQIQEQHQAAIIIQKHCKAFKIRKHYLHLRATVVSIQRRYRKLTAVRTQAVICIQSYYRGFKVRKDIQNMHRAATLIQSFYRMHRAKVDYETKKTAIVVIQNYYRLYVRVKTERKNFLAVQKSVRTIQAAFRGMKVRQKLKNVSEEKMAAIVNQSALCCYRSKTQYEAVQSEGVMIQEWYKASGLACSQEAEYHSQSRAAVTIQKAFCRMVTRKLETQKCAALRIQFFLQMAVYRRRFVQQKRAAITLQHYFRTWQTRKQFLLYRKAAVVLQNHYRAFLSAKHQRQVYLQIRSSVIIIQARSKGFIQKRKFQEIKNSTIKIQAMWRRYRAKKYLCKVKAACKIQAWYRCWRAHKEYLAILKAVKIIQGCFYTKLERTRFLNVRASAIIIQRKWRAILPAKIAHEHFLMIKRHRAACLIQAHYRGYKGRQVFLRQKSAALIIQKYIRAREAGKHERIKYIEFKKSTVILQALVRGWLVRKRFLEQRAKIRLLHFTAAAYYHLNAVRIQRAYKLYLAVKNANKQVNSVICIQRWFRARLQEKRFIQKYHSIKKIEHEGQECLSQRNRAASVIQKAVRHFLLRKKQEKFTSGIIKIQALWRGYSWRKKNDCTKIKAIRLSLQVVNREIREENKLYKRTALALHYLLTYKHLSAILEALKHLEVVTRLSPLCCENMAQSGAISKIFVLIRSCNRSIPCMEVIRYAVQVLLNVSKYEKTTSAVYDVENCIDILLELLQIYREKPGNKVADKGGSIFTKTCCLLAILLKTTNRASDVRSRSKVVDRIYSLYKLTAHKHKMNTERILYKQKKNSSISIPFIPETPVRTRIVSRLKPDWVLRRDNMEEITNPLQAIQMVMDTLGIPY
UniProt P18859: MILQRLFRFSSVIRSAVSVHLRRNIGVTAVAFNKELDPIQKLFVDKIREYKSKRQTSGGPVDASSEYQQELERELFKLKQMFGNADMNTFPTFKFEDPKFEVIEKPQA

How the values were obtained:
Experiment in all cases: log2 fold change, soluble protein after heating vs DMSO (PISA); higher = thermal stabilisation; K562 cells, 10 uM, 30 min; active = over 0.2 and 3.5 SD of the protein, either way, in both replicates (recomputed)
[1] = compound: C#Cc1cccc(Nc2ncnc3cc(OCCOC)c(OCCOC)cc23)c1 [erlotinib]
Summary of the method: (§1)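 K562 cells at 2×10^6 cells/mL were exposed to 10 μM compound for 30 min, then aliquots were heated for 3 min across 48°C-58°C, pooled, and extracted in PBS containing 0.5% NP-40 at 4°C. The supernatant after 21,000xg for 90 min was taken as soluble protein and measured by TMTpro 16plex LC-MS/MS with channel sums equalised. Thermal stability is reported relative to control samples, with values from duplicates. Fold changes are given on a log2 scale.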

[2] = compound: C/C(=N\NC(=O)C1=CC(=CC=C1)S(=O)(=O)N2CCOCC2)/C3=C(C=CC(=C3)Cl)O
Summary of the method: as §1

[3] = compound: C1=CC(=C(C=C1Cl)C2=NC3=NC=CN=C3C(=N2)NC4=CC=NC=C4)F
Summary of the method: as §1

[4] = compound: C1=CC(=CC=C1C2=NC3=C(N2)C=C(C=C3)C(=O)N)OC4=CC=C(C=C4)Cl
Summary of the method: as §1

[5] = compound: C1=CC2=C(C=CC(=C2)/C=C\3/C(=O)NC(=NCC4=CC=CS4)S3)N=C1
Summary of the method: as §1

[6] = compound: C1=CC2=NC=CN=C2C=C1/C=C/3\C(=O)NC(=O)S3
Summary of the method: as §1

[7] = compound: C1=CC=C(C=C1)C2=NC(=C(N2)C3=CC=NC=C3)C4=CC(=C(C=C4)Cl)O
Summary of the method: as §1

[8] = compound: C1=CC=C2C(=C1)C3=NNC4=CC=CC(=C43)C2=O
Summary of the method: as §1

[9] = compound: C1CCN(C1)C(=O)NC2=CC=CC(=C2)NC3=NC=C(C(=N3)NCCC4=CN=CN4)Br
Summary of the method: as §1

[10] = compound: C1CN(CCC1(CC2=CC=C(C=C2)Cl)N)C3=NC=NC4=C3C=CN4
Summary of the method: as §1

Measured: log2 fold change

ATIC (UniProt P31939)
inactive: [1] 0.031 | [2] 0.033 | [3] 0.062 | [4] 0.006 | [5] 0.005 | [6] -0.067 | [7] 0.094 | [8] 0.016 | [9] -0.031 | [10] 0.035

ATP1A3 isoform 3 (UniProt P13637)
inactive: [1] 0.062 | [2] -0.037 | [3] -0.045 | [4] -0.036 | [5] -0.047 | [6] 0.015 | [7] -0.011 | [8] -0.024 | [9] 0.028 | [10] 0.081

ATP1B3 (UniProt P54709)
inactive: [1] -0.016 | [2] -0.004 | [3] -0.002 | [4] -0.019 | [5] -0.021 | [6] 0.023 | [7] 0.057 | [8] -0.052 | [9] -0.024 | [10] 0.048

ARL6IP1 (UniProt Q15041)
inactive: [1] 0.071 | [2] -0.044 | [3] 0.064 | [4] -0.064 | [5] -0.075 | [6] 0.017 | [7] -0.002 | [8] 0.005 | [9] -0.029 | [10] 0.032

ATP6AP1 (UniProt Q15904)
inactive: [1] -0.009 | [2] -0.031 | [3] -0.036 | [4] 0.029 | [5] -0.08 | [6] -0.022 | [7] -0.128 | [8] -0.004 | [9] 0.01 | [10] -0.079

ARL6IP5 (UniProt O75915)
inactive: [1] -0.013 | [2] -0.031 | [3] 0.04 | [4] 0.023 | [5] 0.014 | [6] 0.043 | [7] -0.029 | [8] -0.032 | [9] 0.026 | [10] 0.061

ATP2A2 (UniProt P16615)
inactive: [1] -0.016 | [2] 0.024 | [3] 0.066 | [4] -0.02 | [5] 0.019 | [6] 0.049 | [7] 0.018 | [8] -0.007 | [9] 0.014 | [10] 0.043

ATG9A (UniProt Q7Z3C6)
inactive: [1] 0.044 | [2] 0.03 | [3] 0.057 | [4] -0.003 | [5] 0.047 | [6] 0.021 | [7] 0.045 | [8] -0.005 | [9] -0.026 | [10] -0.023

Retrieved one by one from the list above (2):
ATP2A2 (UniProt P16615)
inactive: [1] -0.016 | [2] 0.024 | [3] 0.066 | [4] -0.02 | [5] 0.019 | [6] 0.049 | [7] 0.018 | [8] -0.007 | [9] 0.014 | [10] 0.043

ATP6AP1 (UniProt Q15904)
inactive: [1] -0.009 | [2] -0.031 | [3] -0.036 | [4] 0.029 | [5] -0.08 | [6] -0.022 | [7] -0.128 | [8] -0.004 | [9] 0.01 | [10] -0.079

The list continues.

ATP5MG (UniProt O75964)
inactive: [1] -0.021 | [2] 0.053 | [3] 0.137 | [4] 0.031 | [5] 0.179 | [6] -0.009 | [7] -0.109 | [8] -0.054 | [9] -0.037 | [10] 0.047

ATP12A isoform 2 (UniProt P54707)
inactive: [1] 0.01 | [2] -0.002 | [3] 0.025 | [4] 0.014 | [5] 0.007 | [6] 0.026 | [7] 0.025 | [8] -0.049 | [9] -0.051 | [10] 0.05

ATP5F1C (UniProt P36542)
inactive: [1] -0.006 | [2] -0.009 | [3] 0.013 | [4] -0.036 | [5] 0.036 | [6] 0.021 | [7] -0.041 | [8] 0.004 | [9] 0.014 | [10] 0.034

ATN1 (UniProt P54259)
inactive: [1] 0.05 | [2] -0.07 | [3] 0 | [4] -0.007 | [5] 0.018 | [6] 0.079 | [7] -0.101 | [8] -0.055 | [9] -0.147 | [10] 0.016

ASPM (UniProt Q8IZT6)
inactive: [1] -0.023 | [2] 0.135 | [3] -0.007 | [4] 0.073 | [5] -0.034 | [6] -0.076 | [7] -0.017 | [8] 0.003 | [9] -0.015 | [10] 0.08

ATP5PF isoform 2 (UniProt P18859)
inactive: [1] -0.126 | [2] -0.042 | [3] 0.2 | [4] -0.004 | [5] 0.112 | [6] 0.057 | [7] 0.006 | [8] 0.03 | [9] 0.039 | [10] -0.143
